Laboratory results reported in patent US8937072B2, “Substituted cyanoaniline compounds, preparation and use thereof” (Sinochem Corporation, priority 2011, dated 2015).
Like-named read-outs stand apart in the source and are kept apart here. Some results were stated once for a whole list of compounds, not compound by compound.

Key:
rice blast = assay type: cell-based; settings: in vitro
corn rust = assay: Protectant activity in vivo (whole plant) against corn rust
Experimental: (§1) The method is as followed: The whole plant is used in this test. The compound is dissolved in a proper solvent to get mother solution. The proper solvent is selected from acetone, methanol, DMF and so on according to their dissolving capability to the sample. The volume rate of solvent and testing solution (v/v) is equal to or less than 5%. The mother solution is diluted with water containing 0.1% tween-80 to get the testing solution whose concentration is designed. The testing solution is sprayed to the host plant by a special plant sprayer. The plant is inoculated with fungus after 24 hours. According to the infecting characteristic of fungus, the plant is stored in a humidity chamber and then transferred into greenhouse after infection is finished. And the other plants are placed in greenhouse directly. The activity of compound is obtained by eyeballing after 7 days in common.

cucumber gray mold = assay: Activity in vitro (96-well, High Through Put): inhibition rate against cucumber gray mold; assay type: cell-based
Summary of the method: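 Scored visually at 24 hours relative to control, the readout is pathogen germination or growth. Test solutions used acetone, methanol or DMF as solvent and were mixed with pathogen suspension in a sterile high-throughput format at constant temperature.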

cucumber downy mildew = assay: Protectant activity in vivo (whole plant) against cucumber downy mildew
Experimental: as §1

Structure (SMILES)	inhibition rate against rice blast (rice blast; dose 0.3 mg/L)	inhibition rate against rice blast (rice blast; dose 0.9 mg/L)	inhibition rate against rice blast (rice blast; dose 2.8 mg/L)	inhibition rate against rice blast (rice blast; dose 8.3 mg/L)	inhibition rate against rice blast (rice blast; dose 25 mg/L)	protectant activity against corn rust in vivo (corn rust; dose 100 mg/L)	inhibition rate against cucumber gray mold (cucumber gray mold; dose 0.3 mg/L)	inhibition rate against cucumber gray mold (cucumber gray mold; dose 0.9 mg/L)	inhibition rate against cucumber gray mold (cucumber gray mold; dose 2.8 mg/L)	inhibition rate against cucumber gray mold (cucumber gray mold; dose 8.3 mg/L)	inhibition rate against cucumber gray mold (cucumber gray mold; dose 25 mg/L)	protectant activity against corn rust in vivo (corn rust; dose 25 mg/L)	protectant activity against corn rust in vivo (corn rust; dose 400 mg/L)	protectant activity against cucumber downy mildew in vivo (cucumber downy mildew; dose 25 mg/L)	protectant activity against cucumber downy mildew in vivo (cucumber downy mildew; dose 50 mg/L)	protectant activity against cucumber downy mildew in vivo (cucumber downy mildew; dose 100 mg/L)	protectant activity against cucumber downy mildew in vivo (cucumber downy mildew; dose 400 mg/L)	protectant activity against corn rust in vivo (corn rust; dose 6.25 mg/L)	protectant activity against cucumber downy mildew in vivo (cucumber downy mildew; dose 6.25 mg/L)
N#Cc1c(Cl)c(Cl)c(Nc2c(F)cc([N+](=O)[O-])cc2F)c(Cl)c1C#N [Compound A-43]	100%	100%	100%	100%	100%	no less than 90%	100%	100%	100%	100%	100%								
N#Cc1c(Cl)c(Cl)c(C#N)c(Nc2c(Cl)cc([N+](=O)[O-])cc2Br)c1Cl [Compound C-49]	100%	100%	100%	100%	100%	no less than 90%					80%	no less than 80%							
N#Cc1c(Cl)c(Cl)c(Nc2c(Cl)c(Cl)c(C#N)c(Cl)c2C#N)c(C#N)c1Cl [Compound B-69]					100%	no less than 90%													
N#Cc1c(Cl)c(Cl)c(Nc2c(Cl)cncc2Cl)c(Cl)c1C#N [Compound A-87]	100%	100%	100%	100%	100%				80%		100%	no less than 80%	no less than 95%						
N#Cc1c(Cl)c(Cl)c(C#N)c(Nc2c(Cl)cc([N+](=O)[O-])cc2Cl)c1Cl [Compound C-40]	100%	100%	100%	100%	100%			100%	100%	100%	100%	no less than 80%	no less than 95%						
N#Cc1c(Cl)c(Cl)c(Nc2c(Br)cc([N+](=O)[O-])cc2Br)c(C#N)c1Cl [Compound B-57]					100%	no less than 80%			100%	100%	100%	no less than 80%							
N#Cc1c(Cl)c(Cl)c(Nc2cccnc2)c(C#N)c1Cl [Compound B-130]					100%								no less than 90%						
N#Cc1c(Cl)c(Cl)c(Nc2ncc(C(F)(F)F)cc2Cl)c(C#N)c1Cl [Compound B-125]	100%	100%	100%	100%	100%						80%			no less than 90%					
N#Cc1c(F)c(F)c(Nc2ccc(C(F)(F)F)cc2Cl)c(C#N)c1F [Compound B-92]		100%	100%	100%	100%				80%	100%	100%			no less than 80%					
N#Cc1c(F)c(F)c(Nc2ccc([N+](=O)[O-])cc2Cl)c(C#N)c1F [Compound B-95]		100%	100%	100%	100%				100%	100%	100%				more than 80%	more than 95%			
N#Cc1c(F)c(F)c(C#N)c(Nc2c(Br)cc([N+](=O)[O-])cc2Br)c1F [Compound C-96]		100%	100%	100%	100%			100%	100%	100%	100%					more than 95%	more than 90%		
N#Cc1c(Cl)c(Cl)c(Nc2nc(Cl)c(Cl)c(Cl)c2Cl)c(C#N)c1Cl [Compound B-128b]	100%	100%	100%	100%	100%				80%	100%	100%				more than 95%				
N#Cc1c(Cl)c(Cl)c(Nc2ccc([N+](=O)[O-])cc2[N+](=O)[O-])c(C#N)c1Cl [Compound B-37]	100%	100%	100%	100%	100%			100%	100%	100%	100%				more than 80%	more than 95%			
N#Cc1ccc(Nc2c(Cl)c(Cl)c(C#N)c(Cl)c2C#N)cc1C(F)(F)F [Compound B-40]					100%						80%			no less than 90%					
N#Cc1c(Cl)c(Cl)c(Nc2c(Cl)cc([N+](=O)[O-])cc2Br)c(Cl)c1C#N [Compound A-46]	100%	100%	100%	100%	100%	no less than 90%	100%	100%	100%	100%	100%	no less than 80%						no less than 70%	
N#Cc1c(F)c(F)c(Nc2c(Cl)cc(C(F)(F)F)cc2Cl)c(C#N)c1F [Compound B-111]		100%	100%	100%	100%						100%			no less than 80%					
N#Cc1c(Cl)c(Cl)c(Nc2ccc([N+](=O)[O-])cc2Cl)c(C#N)c1Cl [Compound B-35]	100%	100%	100%	100%	100%		100%	100%	100%	100%	100%			no less than 90%					no less than 85%
N#Cc1c(Cl)c(Cl)c(C#N)c(Nc2ccc(C(F)(F)F)cc2Cl)c1Cl [Compound C-30]	100%	100%	100%	100%	100%				80%	100%	100%		no less than 90%						
N#Cc1c(Cl)c(Cl)c(Nc2c(Cl)cncc2Cl)c(C#N)c1Cl [Compound B-139]	100%	100%	100%	100%	100%			100%	100%	100%	100%			no less than 90%					no less than 85%
